Results reported in the supplement of paper PMC10849652.
The list shows a part of the results.

Sequences of proteins named here, by UniProt entry; tags and fusion partners are left off. A change or cut given only in a name is not applied to a line headed by its entry.
UniProt Q9BRY0: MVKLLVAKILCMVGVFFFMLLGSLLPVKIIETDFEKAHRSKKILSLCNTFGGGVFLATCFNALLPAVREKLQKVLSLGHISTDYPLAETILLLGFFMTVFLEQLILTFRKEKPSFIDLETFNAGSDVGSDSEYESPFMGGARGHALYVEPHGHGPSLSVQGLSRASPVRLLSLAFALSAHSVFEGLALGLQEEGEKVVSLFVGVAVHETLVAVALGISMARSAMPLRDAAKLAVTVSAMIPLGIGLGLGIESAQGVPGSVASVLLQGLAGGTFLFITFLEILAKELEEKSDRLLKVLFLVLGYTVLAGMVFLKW
UniProt P52569: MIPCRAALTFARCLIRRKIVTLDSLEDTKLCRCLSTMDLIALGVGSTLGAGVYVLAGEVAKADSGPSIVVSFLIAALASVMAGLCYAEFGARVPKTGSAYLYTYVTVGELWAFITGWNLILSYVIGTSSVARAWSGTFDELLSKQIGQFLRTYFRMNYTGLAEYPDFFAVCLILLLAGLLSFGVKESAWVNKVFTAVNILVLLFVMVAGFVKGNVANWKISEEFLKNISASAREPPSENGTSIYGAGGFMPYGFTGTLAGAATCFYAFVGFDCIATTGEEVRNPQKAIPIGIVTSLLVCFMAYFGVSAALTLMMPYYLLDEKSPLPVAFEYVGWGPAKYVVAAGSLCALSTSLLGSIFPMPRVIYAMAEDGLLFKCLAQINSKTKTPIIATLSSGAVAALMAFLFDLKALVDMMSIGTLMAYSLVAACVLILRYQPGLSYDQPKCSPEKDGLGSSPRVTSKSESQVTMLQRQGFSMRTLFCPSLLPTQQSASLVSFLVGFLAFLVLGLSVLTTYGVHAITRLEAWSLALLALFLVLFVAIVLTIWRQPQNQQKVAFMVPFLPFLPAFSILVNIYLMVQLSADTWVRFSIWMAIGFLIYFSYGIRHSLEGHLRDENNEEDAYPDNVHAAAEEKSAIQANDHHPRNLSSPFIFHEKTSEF
UniProt P05141: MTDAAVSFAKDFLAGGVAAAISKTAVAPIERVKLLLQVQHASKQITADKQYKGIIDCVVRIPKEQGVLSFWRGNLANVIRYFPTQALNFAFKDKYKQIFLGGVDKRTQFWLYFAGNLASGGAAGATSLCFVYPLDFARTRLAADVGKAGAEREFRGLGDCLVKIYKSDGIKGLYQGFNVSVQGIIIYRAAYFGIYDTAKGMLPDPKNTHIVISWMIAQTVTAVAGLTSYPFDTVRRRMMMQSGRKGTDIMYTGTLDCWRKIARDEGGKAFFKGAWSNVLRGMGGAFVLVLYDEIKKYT
UniProt Q9NP59: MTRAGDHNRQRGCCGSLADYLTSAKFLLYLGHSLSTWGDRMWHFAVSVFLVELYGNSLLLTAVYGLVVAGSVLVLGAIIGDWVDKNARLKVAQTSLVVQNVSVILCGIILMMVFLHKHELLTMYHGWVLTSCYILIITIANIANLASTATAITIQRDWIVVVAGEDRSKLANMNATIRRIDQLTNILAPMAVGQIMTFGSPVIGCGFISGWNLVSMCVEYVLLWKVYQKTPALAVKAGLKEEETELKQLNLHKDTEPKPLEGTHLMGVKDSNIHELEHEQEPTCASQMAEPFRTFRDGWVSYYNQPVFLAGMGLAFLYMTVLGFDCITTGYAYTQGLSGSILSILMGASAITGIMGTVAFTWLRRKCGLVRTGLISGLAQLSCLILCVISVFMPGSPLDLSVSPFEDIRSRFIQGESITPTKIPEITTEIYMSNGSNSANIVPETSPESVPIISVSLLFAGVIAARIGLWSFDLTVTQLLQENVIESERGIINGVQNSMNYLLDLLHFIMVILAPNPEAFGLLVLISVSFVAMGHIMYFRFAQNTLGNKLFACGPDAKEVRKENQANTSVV
UniProt O75746: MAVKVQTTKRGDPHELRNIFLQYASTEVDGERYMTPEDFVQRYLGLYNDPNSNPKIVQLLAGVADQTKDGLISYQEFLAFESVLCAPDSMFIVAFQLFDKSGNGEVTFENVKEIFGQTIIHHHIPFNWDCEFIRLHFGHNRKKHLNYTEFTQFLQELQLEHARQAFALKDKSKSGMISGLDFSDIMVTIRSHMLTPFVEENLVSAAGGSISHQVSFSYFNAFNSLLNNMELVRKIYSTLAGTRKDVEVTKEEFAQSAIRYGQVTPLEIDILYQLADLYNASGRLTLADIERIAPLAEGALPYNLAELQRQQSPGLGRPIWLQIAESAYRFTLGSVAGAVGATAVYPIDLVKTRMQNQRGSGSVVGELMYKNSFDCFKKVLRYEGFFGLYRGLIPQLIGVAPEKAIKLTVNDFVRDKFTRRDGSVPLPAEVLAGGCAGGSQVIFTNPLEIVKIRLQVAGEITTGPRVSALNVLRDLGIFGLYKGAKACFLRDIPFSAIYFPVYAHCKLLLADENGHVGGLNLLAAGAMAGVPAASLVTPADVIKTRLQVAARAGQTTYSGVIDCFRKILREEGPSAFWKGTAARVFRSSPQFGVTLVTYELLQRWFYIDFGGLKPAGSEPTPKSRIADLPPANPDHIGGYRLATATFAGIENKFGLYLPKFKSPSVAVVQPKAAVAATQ
UniProt P12236: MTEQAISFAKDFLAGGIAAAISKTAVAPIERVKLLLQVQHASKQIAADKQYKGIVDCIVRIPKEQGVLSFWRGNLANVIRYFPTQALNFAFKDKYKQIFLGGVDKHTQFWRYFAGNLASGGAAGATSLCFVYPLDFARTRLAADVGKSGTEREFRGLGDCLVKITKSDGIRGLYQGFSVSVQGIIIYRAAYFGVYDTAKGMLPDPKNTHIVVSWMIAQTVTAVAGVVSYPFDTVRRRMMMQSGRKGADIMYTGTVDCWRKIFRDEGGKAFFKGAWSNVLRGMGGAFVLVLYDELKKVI
UniProt Q92536: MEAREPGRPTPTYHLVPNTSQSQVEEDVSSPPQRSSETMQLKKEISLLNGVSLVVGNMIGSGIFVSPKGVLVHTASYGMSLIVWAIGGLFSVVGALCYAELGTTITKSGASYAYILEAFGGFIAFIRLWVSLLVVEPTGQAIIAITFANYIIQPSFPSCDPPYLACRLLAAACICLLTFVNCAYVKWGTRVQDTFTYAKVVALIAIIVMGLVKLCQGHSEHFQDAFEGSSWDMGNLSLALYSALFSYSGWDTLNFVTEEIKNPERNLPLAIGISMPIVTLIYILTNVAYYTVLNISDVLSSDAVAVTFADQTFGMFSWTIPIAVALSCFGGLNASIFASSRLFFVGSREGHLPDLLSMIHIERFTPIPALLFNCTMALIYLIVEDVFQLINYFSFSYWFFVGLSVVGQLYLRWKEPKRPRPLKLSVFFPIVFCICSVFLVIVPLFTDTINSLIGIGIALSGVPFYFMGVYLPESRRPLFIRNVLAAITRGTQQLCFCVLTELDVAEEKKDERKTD
UniProt Q9HC21: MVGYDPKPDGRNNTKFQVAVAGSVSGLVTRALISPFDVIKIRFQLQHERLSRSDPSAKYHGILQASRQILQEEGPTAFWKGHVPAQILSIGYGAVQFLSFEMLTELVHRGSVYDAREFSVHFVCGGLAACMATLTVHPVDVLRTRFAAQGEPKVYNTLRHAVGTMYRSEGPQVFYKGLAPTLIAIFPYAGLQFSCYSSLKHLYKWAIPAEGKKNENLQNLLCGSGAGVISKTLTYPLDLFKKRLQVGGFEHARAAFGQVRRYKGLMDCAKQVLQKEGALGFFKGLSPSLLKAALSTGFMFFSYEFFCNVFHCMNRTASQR
UniProt P11169: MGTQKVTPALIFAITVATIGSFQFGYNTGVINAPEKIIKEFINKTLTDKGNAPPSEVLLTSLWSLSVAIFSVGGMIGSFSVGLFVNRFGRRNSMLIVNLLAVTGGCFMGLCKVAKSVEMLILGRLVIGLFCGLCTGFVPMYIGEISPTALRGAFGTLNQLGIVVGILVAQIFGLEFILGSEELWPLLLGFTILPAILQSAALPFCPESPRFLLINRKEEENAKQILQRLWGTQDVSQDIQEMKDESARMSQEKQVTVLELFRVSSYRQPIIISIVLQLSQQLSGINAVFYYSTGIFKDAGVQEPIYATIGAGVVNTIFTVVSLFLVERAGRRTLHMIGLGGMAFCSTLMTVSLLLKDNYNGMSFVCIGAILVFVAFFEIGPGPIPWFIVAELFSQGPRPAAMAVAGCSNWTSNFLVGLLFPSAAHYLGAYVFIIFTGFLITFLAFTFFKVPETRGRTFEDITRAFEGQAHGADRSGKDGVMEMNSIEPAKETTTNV
UniProt O15198: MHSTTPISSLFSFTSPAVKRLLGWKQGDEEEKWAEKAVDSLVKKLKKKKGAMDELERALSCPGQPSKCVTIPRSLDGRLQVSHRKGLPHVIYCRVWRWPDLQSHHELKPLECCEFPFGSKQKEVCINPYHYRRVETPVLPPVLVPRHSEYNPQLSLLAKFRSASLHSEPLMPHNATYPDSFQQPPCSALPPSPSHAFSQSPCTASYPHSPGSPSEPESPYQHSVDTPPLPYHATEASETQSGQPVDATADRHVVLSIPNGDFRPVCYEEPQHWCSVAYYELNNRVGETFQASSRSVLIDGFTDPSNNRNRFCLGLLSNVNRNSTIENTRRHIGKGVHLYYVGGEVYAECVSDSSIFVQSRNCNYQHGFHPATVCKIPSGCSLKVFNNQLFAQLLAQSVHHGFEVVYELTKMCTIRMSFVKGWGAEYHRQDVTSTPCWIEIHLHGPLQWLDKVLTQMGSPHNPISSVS
UniProt Q7Z2H8: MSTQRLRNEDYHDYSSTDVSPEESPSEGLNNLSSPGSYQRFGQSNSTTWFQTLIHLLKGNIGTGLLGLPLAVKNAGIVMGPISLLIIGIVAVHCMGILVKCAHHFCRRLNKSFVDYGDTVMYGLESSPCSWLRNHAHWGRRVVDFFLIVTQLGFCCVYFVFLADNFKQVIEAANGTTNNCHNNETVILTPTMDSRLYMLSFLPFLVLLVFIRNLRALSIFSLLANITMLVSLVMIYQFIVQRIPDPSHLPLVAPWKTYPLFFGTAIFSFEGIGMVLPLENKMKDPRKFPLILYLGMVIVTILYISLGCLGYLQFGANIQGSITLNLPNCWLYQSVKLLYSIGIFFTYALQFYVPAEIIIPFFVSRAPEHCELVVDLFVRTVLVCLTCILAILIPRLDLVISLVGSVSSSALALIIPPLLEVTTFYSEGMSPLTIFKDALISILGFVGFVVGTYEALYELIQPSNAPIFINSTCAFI
UniProt O14975, whole entry, looked up: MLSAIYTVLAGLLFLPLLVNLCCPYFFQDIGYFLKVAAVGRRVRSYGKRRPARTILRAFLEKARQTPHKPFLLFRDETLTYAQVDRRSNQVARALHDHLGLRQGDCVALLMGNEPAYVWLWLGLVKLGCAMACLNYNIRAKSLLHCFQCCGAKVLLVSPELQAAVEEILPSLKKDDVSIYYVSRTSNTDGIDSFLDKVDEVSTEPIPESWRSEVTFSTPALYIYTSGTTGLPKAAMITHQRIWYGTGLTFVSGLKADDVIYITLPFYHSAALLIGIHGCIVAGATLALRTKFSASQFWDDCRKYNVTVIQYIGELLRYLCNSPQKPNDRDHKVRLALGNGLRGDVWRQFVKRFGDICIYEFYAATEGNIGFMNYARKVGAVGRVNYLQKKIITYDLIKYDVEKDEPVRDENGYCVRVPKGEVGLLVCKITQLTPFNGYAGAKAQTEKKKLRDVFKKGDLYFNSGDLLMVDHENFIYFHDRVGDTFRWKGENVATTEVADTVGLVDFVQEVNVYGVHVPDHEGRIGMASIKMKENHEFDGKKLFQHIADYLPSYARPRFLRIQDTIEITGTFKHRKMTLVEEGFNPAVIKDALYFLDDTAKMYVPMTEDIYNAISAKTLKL
UniProt Q9UBX3: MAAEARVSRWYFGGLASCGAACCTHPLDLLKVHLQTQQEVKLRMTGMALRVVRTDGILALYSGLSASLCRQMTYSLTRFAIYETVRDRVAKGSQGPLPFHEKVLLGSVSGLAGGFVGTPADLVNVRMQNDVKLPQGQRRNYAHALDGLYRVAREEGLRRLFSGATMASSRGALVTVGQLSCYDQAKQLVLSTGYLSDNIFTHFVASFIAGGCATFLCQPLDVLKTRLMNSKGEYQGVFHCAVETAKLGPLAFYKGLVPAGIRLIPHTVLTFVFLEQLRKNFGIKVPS
UniProt Q9H1N7: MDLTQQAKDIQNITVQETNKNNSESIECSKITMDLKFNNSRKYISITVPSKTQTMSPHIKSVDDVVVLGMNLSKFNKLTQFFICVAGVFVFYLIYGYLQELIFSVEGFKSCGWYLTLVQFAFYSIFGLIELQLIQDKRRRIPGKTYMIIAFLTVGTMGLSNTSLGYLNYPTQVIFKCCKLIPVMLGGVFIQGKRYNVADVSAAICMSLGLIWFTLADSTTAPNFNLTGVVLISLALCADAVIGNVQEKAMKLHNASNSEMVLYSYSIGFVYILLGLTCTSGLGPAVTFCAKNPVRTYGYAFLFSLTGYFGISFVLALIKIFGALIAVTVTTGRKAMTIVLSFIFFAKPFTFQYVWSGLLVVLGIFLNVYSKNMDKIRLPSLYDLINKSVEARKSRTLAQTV

Legend:
Test in all cases: log2 fold change, soluble protein after heating vs DMSO (PISA); higher = thermal stabilisation; K562 lysate, 10 uM; active = over 0.2 and 3.5 SD of the protein, either way, in both replicates (recomputed)
nilotinib = compound: Cc1cn(-c2cc(NC(=O)c3ccc(C)c(Nc4nccc(-c5cccnc5)n4)c3)cc(C(F)(F)F)c2)cn1 [nilotinib]
Summary of the method: (§1)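 Log-two fold change in thermal stability relative to solvent controls is reported from duplicates. For each sample, crude K562 extract from dounce-homogenised pellets in PBS pH 7.4 with 1 mM MgCl2, at 1 mg/mL protein, was treated with 10 μM compound for 30 min. Aliquots heated for 3 min across 48°C-58°C were pooled, brought to 0.5% NP-40 at 4°C and cleared at 21,000xg for 90 min. The supernatant was quantified by TMTpro 16plex LC-MS/MS with channel sums equalised.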

[1] = compound: Cc1nc(Nc2n[nH]c3c2CN(C(=O)N[C@H](CN(C)C)c2ccccc2)C3(C)C)c2sccc2n1
Summary of the method: as §1

dasatinib = compound: Cc1nc(Nc2ncc(C(=O)Nc3c(C)cccc3Cl)s2)cc(N2CCN(CCO)CC2)n1 [dasatinib]
Summary of the method: as §1

[2] = compound: Cc1ncc(-c2ccnc(Nc3ccc(S(C)(=O)=O)cc3)n2)n1C(C)C
Summary of the method: as §1

[3] = compound: Cn1cc(-c2ccc3c(c2)CCN3C(=O)Cc2cccc(C(F)(F)F)c2)c2c(N)ncnc21
Summary of the method: as §1

quisinostat = compound: Cn1cc(CNCC2CCN(c3ncc(C(=O)NO)cn3)CC2)c2ccccc21 [quisinostat]
Summary of the method: as §1

tipifarnib = compound: Cn1cncc1[C@@](N)(c1ccc(Cl)cc1)c1ccc2c(c1)c(-c1cccc(Cl)c1)cc(=O)n2C [tipifarnib]
Summary of the method: as §1

[4] = compound: NC(=O)Nc1cc(-c2cccc(F)c2)sc1C(=O)N[C@H]1CCCNC1
Summary of the method: as §1

[5] = compound: NC(=O)c1cnc(N[C@@H]2CCCC[C@@H]2N)nc1Nc1cccc(-n2nccn2)c1
Summary of the method: as §1

[6] = compound: NC1(c2ccc(-c3nc4ccn5c(=O)[nH]nc5c4cc3-c3ccccc3)cc2)CCC1
Summary of the method: as §1

[7] = compound: NCC(=O)Nc1ccc(-n2nc(C(F)(F)F)cc2-c2ccc3c(ccc4ccccc43)c2)cc1
Summary of the method: as §1

vorinostat = compound: O=C(CCCCCCC(=O)Nc1ccccc1)NO [vorinostat]
Summary of the method: as §1

silmitasertib = compound: O=C(O)c1ccc2c(c1)nc(Nc1cccc(Cl)c1)c1ccncc12 [silmitasertib]
Summary of the method: as §1

[8] = compound: O=C1NC(=O)C(c2cnc3ccccn23)=C1c1cn2c3c(cc(F)cc13)CN(C(=O)N1CCCCC1)CC2
Summary of the method: as §1

entospletinib = compound: c1cn2cc(-c3ccc4cn[nH]c4c3)nc(Nc3ccc(N4CCOCC4)cc3)c2n1 [entospletinib]
Summary of the method: as §1

Measured: log2 fold change

SLC39A3 (UniProt Q9BRY0)
inactive: nilotinib 0.03 | [1] 0.054 | dasatinib -0.02 | [2] 0.045 | [3] 0.059 | quisinostat -0.155 | tipifarnib 0.061 | [4] 0.066 | [5] 0.007 | [6] -0.071 | [7] 0.004 | vorinostat 0.062 | silmitasertib -0.025 | [8] 0.021 | entospletinib 0.065

SLC7A2 isoform 3 (UniProt P52569)
inactive: nilotinib 0.063 | [1] -0.098 | dasatinib -0.009 | [2] 0.018 | [3] -0.032 | quisinostat -0.034 | tipifarnib -0.044 | [4] 0.003 | [5] -0.029 | [6] 0.005 | [7] -0.066 | vorinostat 0.019 | silmitasertib -0.033 | [8] 0.039 | entospletinib 0.158

SLC25A5 (UniProt P05141)
inactive: nilotinib 0.023 | [1] 0.019 | dasatinib 0.126 | [2] 0.03 | [3] 0 | quisinostat 0.078 | tipifarnib 0.011 | [4] 0.01 | [5] -0.01 | [6] 0.012 | [7] 0.006 | vorinostat -0.07 | silmitasertib -0.05 | [8] 0.017 | entospletinib 0.036

SLC40A1 (UniProt Q9NP59)
inactive: nilotinib 0.009 | [1] 0.131 | dasatinib -0.077 | [2] 0.015 | [3] -0.02 | quisinostat -0.079 | tipifarnib -0.118 | [4] 0.167 | [5] -0.035 | [6] -0.185 | [7] 0.005 | vorinostat 0.046 | silmitasertib 0 | [8] -0.016 | entospletinib 0.022

SLC25A12 (UniProt O75746)
inactive: nilotinib 0.002 | [1] -0.004 | dasatinib 0.037 | [2] 0.012 | [3] -0.003 | quisinostat 0.101 | tipifarnib 0.014 | [4] 0.005 | [5] -0.011 | [6] 0.006 | [7] 0.007 | vorinostat 0.036 | silmitasertib -0.008 | [8] -0.008 | entospletinib 0.01

SLC25A6 (UniProt P12236)
inactive: nilotinib 0.033 | [1] 0.039 | dasatinib 0.019 | [2] 0.016 | [3] -0.029 | quisinostat 0.02 | tipifarnib 0.047 | [4] 0.034 | [5] -0.012 | [6] 0.007 | [7] -0.003 | vorinostat 0.012 | silmitasertib -0.007 | [8] -0.034 | entospletinib 0.034

SLC7A6 (UniProt Q92536)
inactive: nilotinib -0.143 | [1] 0.272 | dasatinib 0.025 | [2] -0.098 | [3] -0.006 | quisinostat -0.022 | tipifarnib 0.178 | [4] -0.012 | [5] -0.007 | [6] -0.074 | [7] 0.006 | vorinostat -0.053 | silmitasertib -0.074 | [8] -0.004 | entospletinib 0.036

SLC25A19 (UniProt Q9HC21)
inactive: nilotinib -0.007 | [1] 0 | dasatinib 0.057 | [2] 0.037 | [3] 0.026 | quisinostat 0.044 | tipifarnib 0.007 | [4] -0.008 | [5] -0.009 | [6] 0.027 | [7] -0.02 | vorinostat 0.085 | silmitasertib -0.003 | [8] -0.036 | entospletinib 0.043

SLC26A6 (UniProt Q9BXS9)
inactive: nilotinib 0.057 | [1] 0.05 | dasatinib -0.4 | [2] 0.164 | [3] -0.154 | quisinostat 0.006 | tipifarnib 0.05 | [4] 0.033 | [5] 0.054 | [6] -0.128 | [7] 0.012 | vorinostat 0.048 | silmitasertib 0.03 | [8] 0.021 | entospletinib -0.111

SLC39A14 (UniProt Q15043)
inactive: nilotinib -0.027 | [1] -0.015 | dasatinib -0.002 | [2] 0.016 | [3] 0.013 | quisinostat -0.018 | tipifarnib -0.042 | [4] -0.004 | [5] 0.027 | [6] -0.025 | [7] 0.068 | vorinostat 0.178 | silmitasertib -0.006 | [8] -0.034 | entospletinib 0.002

SLC35F6 (UniProt Q8N357)
inactive: nilotinib 0.009 | [1] -0.037 | dasatinib 0.072 | [2] -0.018 | [3] 0.108 | quisinostat -0.019 | tipifarnib -0.199 | [4] 0.01 | [5] 0.022 | [6] -0.027 | [7] -0.075 | vorinostat -0.006 | silmitasertib -0.01 | [8] -0.018 | entospletinib -0.012

SLC7A1 (UniProt P30825)
inactive: nilotinib -0.012 | [1] 0.011 | dasatinib 0.026 | [2] -0.04 | [3] 0.06 | quisinostat 0.027 | tipifarnib -0.018 | [4] -0.049 | [5] -0.007 | [6] 0.01 | [7] -0.028 | vorinostat -0.046 | silmitasertib 0.02 | [8] -0.102 | entospletinib 0.066

SLC2A3 (UniProt P11169)
inactive: nilotinib 0.007 | [1] -0.023 | dasatinib 0.047 | [2] -0.065 | [3] 0.009 | quisinostat 0.008 | tipifarnib 0.018 | [4] 0.014 | [5] 0.002 | [6] 0.008 | [7] 0.006 | vorinostat 0.058 | silmitasertib -0.012 | [8] -0.061 | entospletinib 0.006

SMAD9 (UniProt O15198)
inactive: nilotinib 0.066 | [1] 0.054 | dasatinib 0.062 | [2] -0.028 | [3] -0.038 | quisinostat -0.036 | tipifarnib -0.021 | [4] 0.016 | [5] 0.02 | [6] -0.065 | [7] 0.007 | silmitasertib 0.023 | [8] -0.012 | entospletinib 0.017
active: vorinostat -0.436

SLC36A1 (UniProt Q7Z2H8)
inactive: nilotinib 0.082 | [1] -0.026 | dasatinib 0.079 | [2] -0.043 | [3] -0.063 | quisinostat -0.074 | tipifarnib 0.037 | [4] 0.021 | [5] 0.032 | [6] 0.014 | [7] 0.252 | vorinostat 0.238 | silmitasertib -0.018 | [8] 0.059 | entospletinib 0.115

SLC27A2 (UniProt O14975)
inactive: nilotinib 0.056 | [1] -0.027 | dasatinib 0.038 | [2] -0.053 | [3] -0.011 | quisinostat -0.078 | tipifarnib 0.031 | [4] -0.06 | [5] -0.033 | [6] 0.029 | [7] -0.108 | vorinostat -0.237 | silmitasertib 0.08 | [8] 0.367 | entospletinib -0.023

Two successive entries out of the list so far, for reference:
SLC2A3 (UniProt P11169)
inactive: nilotinib 0.007 | [1] -0.023 | dasatinib 0.047 | [2] -0.065 | [3] 0.009 | quisinostat 0.008 | tipifarnib 0.018 | [4] 0.014 | [5] 0.002 | [6] 0.008 | [7] 0.006 | vorinostat 0.058 | silmitasertib -0.012 | [8] -0.061 | entospletinib 0.006

SMAD9 (UniProt O15198)
inactive: nilotinib 0.066 | [1] 0.054 | dasatinib 0.062 | [2] -0.028 | [3] -0.038 | quisinostat -0.036 | tipifarnib -0.021 | [4] 0.016 | [5] 0.02 | [6] -0.065 | [7] 0.007 | silmitasertib 0.023 | [8] -0.012 | entospletinib 0.017
active: vorinostat -0.436

Next part:

SLC25A10 isoform 2 (UniProt Q9UBX3)
inactive: nilotinib 0 | [1] 0.006 | dasatinib -0.024 | [2] -0.017 | [3] -0.028 | quisinostat -0.003 | tipifarnib -0.013 | [4] 0.046 | [5] -0.02 | [6] -0.027 | [7] -0.058 | vorinostat -0.069 | silmitasertib -0.001 | [8] -0.061 | entospletinib -0.023

SLC37A4 isoform 2 (UniProt O43826)
inactive: nilotinib 0.01 | [1] -0.002 | dasatinib 0.058 | [2] -0.035 | [3] 0.035 | quisinostat -0.084 | tipifarnib -0.035 | [4] -0.002 | [5] 0.01 | [6] -0.072 | [7] -0.014 | vorinostat 0.13 | silmitasertib 0.058 | [8] -0.074 | entospletinib 0.007

SLIRP (UniProt Q9GZT3)
inactive: nilotinib 0 | [1] 0.005 | dasatinib -0.03 | [2] 0.001 | [3] 0.014 | quisinostat 0.043 | tipifarnib 0.01 | [4] -0.009 | [5] 0.024 | [6] 0.01 | [7] 0.003 | vorinostat 0.004 | silmitasertib -0.002 | [8] 0.012 | entospletinib -0.011

SLC35B3 (UniProt Q9H1N7)
inactive: nilotinib -0.067 | [1] -0.024 | dasatinib -0.053 | [2] -0.065 | [3] 0.042 | quisinostat -0.223 | tipifarnib 0.133 | [4] -0.03 | [5] -0.017 | [6] -0.005 | [7] -0.033 | vorinostat 0.036 | silmitasertib -0.033 | [8] -0.046
